Results taken from PubChem BioAssay AID504834 (National Center for Advancing Translational Sciences (NCATS), 2011).
The whole screen tested about 320,000 compounds, of which about 22,000 (6.9%) were called active. This list was built around the results that the source calls inconclusive (neither active nor inactive); the mix of calls is not that of the screen. Calls come from the whole dose curve; as a rule, active = well fitted inhibition curve with a large enough effect; inconclusive = small, poorly fitted or top-dose-only effect, or another doubt; inactive = no such curve, though single readings can be large or run the other way. Potencies beside an inconclusive call are fits to weak or partial responses and may not hold up.

test: Primary qHTS for delayed death inhibitors of the malarial parasite plastid, 96 hour incubation; settings: P. falciparum luciferase reporter growth; series mostly up to 28.7 µM; activity change, negative = inhibition: at the top concentration
In short: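 Readout is luminescence from an integrated firefly luciferase in P. falciparum. Red cells, 2% hematocrit and 0.05% parasitemia final, were cultured with compound through two parasite generations (96 hours) at 37 C, 5% CO2.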
% is set by controls: 0 for no effect and ±100 for the full control effect; potency is the fitted concentration of half-maximal effect.

Compound	Potency	activity change, negative = inhibition
COc1ccc(N(Cc2ccc(N(C)C)cc2)C(=O)c2ccc(S(C)(=O)=O)cc2)cc1	inconclusive: 3.29 µM [inhibitor, partial curve]	
O=C(Nc1ccc([N+](=O)[O-])cc1Br)c1cc2ccccc2nc1Cl	active: 0.329 µM	
CN1C(=O)NC(c2ccc(Cl)cc2)C2=C1CC(C)(C)CC2=O (stereo unspecified)	inconclusive: 10.4 µM [inhibitor, single point]	
Oc1ccccc1C1=NCCNC(C(F)(F)F)=C1		inactive: -3.24%
O=C(CCl)Nc1ccc(-c2ccccc2)cc1	active: 13.1 µM	
O=C1C=C(c2ccccc2)C[C@@H](c2ccc(Cl)cc2)C1	inconclusive: 5.22 µM [inhibitor, partial curve]	
O=C(CN1CCN(C(=O)CNC(=O)c2ccc3c(c2)OCO3)CC1)Nc1ccccc1Cl	inconclusive: 6.57 µM [inhibitor, partial curve]	
COc1cccc(NC(=O)CN(C)S(=O)(=O)c2ccc(C)cc2)c1	inconclusive: 10.4 µM [inhibitor, partial curve]	
COC(=O)[C@H](C)[C@H]1C[C@]1(C)[C@H](NC(=O)OCc1ccccc1)c1ccccc1	inconclusive: 8.28 µM [inhibitor, partial curve, poor fit]	
O=C(Nc1ccc([N+](=O)[O-])c(NC(=O)C2CCCO2)c1)C1CCCO1 (stereo unspecified)	inconclusive: 18.5 µM [inhibitor, single point]	
CC(C)NC1=C(Cl)C(=O)c2ccccc2C1=O	active: 0.928 µM	
CCOc1cc(C(=O)O)ccc1OCCOc1ccccc1		inactive: 10.2%
CCSc1nnc(-c2cccnc2)n1-c1ccc(Cl)c(C)c1	active: 11.7 µM	
O=C(OCc1ccccc1F)c1cc([N+](=O)[O-])ccc1N1CCOCC1	inconclusive: 11.7 µM [inhibitor, partial curve, poor fit]	
O=C(c1cccc2ccccc12)N1CCN(Cc2ccccc2F)CC1	inconclusive: 11.7 µM [inhibitor, single point]	
O=C(NCC1CCCO1)c1cc2c([nH]c3ccccc32)c(-c2cccc(Br)c2)n1 (stereo unspecified)	active: 3.7 µM	
O=C(Nc1ccc(C(F)(F)F)cc1)c1cnc(N2CCN(c3ccccn3)CC2)c2ccccc12		inactive: 22%
CC(C)(C)NC(=O)C1Cc2ccccc2CN1 (stereo unspecified)		inactive: 25.3%
CCn1c(O)c(N=NC(=O)c2cccc(S(=O)(=O)N3CCCCC3)c2)c2ccccc21	inconclusive: 1.65 µM [inhibitor, partial curve, poor fit]	
COc1ccccc1N1CCN(S(=O)(=O)c2ccccc2F)CC1	inconclusive: 18.5 µM [inhibitor, single point]	
O=c1c2ccccc2sn1-c1cc(S(=O)(=O)N2CCOCC2)ccc1N1CCCC1	inconclusive: 3.29 µM [inhibitor, partial curve, poor fit]	
CC(C)Cn1c(N)c(C(=O)NCC2CCCO2)c2nc3ccccc3nc21 (stereo unspecified)	inconclusive: 18.5 µM [inhibitor, single point]	
CCOC(=O)CC(=O)CSc1nc2c(cc1C#N)CCC2		inactive: 89.1%
COc1ccc(-n2nnnc2-c2cnc3cc4c(cc3c2C)OCO4)cc1		inactive: -38.7%

One compound at a time (already shown):
Oc1ccccc1C1=NCCNC(C(F)(F)F)=C1 as listed: activity change, negative = inhibition: inactive: -3.24%
O=c1c2ccccc2sn1-c1cc(S(=O)(=O)N2CCOCC2)ccc1N1CCCC1 as listed: Potency: inconclusive: 3.29 µM [inhibitor, partial curve, poor fit]

(next part)

Compound	Potency	activity change, negative = inhibition
CCCNC(=O)C/C(C)=N/NC(=O)C(=O)Nc1ccccn1	inconclusive: 5.86 µM [inhibitor, partial curve]	
COc1ccc(/C=C/C(=O)OCC(=O)c2c[nH]c3ccccc23)cc1		inactive: 1.94%
CCC(C)[C@H](NC(=O)NCc1ccco1)C(=O)OC (stereo partly specified)	inconclusive: 11.7 µM [inhibitor, single point]	
CS(=O)(=O)N(CC(=O)Nc1ccccc1C(=O)N1CCOCC1)c1ccccc1		inactive: 26.4%
Cc1ccc(NS(=O)(=O)c2ccc3c(c2)CC(=O)N3)cc1C	inconclusive: 18.5 µM [inhibitor, single point]	
CCCCCc1c(C)nc(N2CCN(Cc3ccc4c(c3)OCO4)CC2)[nH]c1=O		inactive: -3.03%
Oc1ccc(C[C@@H]2CNCCN2CCC23CC4CC(CC(C4)C2)C3)cc1	active: 2.08 µM	
O=C(/C=C/c1ccco1)Nc1ccc(Oc2ccccc2)cc1	inconclusive: 18.5 µM [inhibitor, partial curve, poor fit]	
O=C(O)c1ccc(COc2ccc3c4c(c(=O)oc3c2)CCC4)o1	inconclusive: 9.28 µM [inhibitor, partial curve, poor fit]	
O=C1C2CCC(C(O)C2)N1Cc1ccccc1 (stereo unspecified)	inconclusive: 0.0037 µM [inhibitor, full curve, poor fit]	
CCOC(=O)CNc1c(N2CCN(c3ccccn3)CC2)c(=O)c1=O	inconclusive: 1.04 µM [inhibitor, partial curve, poor fit]	
Cc1ccc(C)c(NC(=O)Cn2cnc3c(oc4ccccc43)c2=O)c1	inconclusive: 13.1 µM [inhibitor, partial curve]	
COc1ccc(CNC(=O)CN(Cc2ccccc2)C(=O)CCC(=O)Nc2nccs2)cc1		inactive: 10.7%
CC(C)N(Cc1ccccc1)C(=O)COc1ccccc1	inconclusive: 4.15 µM [inhibitor, partial curve, poor fit]	
O=C1NC(=O)C(CCc2ccncc2)(CCc2ccncc2)C(=O)N1Cc1ccccc1	inconclusive: 18.5 µM [inhibitor, single point]	
O=C(N/N=C\c1ccccc1)c1ccccc1-n1cccc1	inconclusive: 18.5 µM [inhibitor, single point]	
COc1ccccc1OC(C)C(=O)N(Cc1ccco1)C1CCS(=O)(=O)C1 (stereo unspecified)	inconclusive: 1.85 µM [inhibitor, full curve, poor fit]	
CCOC(=O)c1ccc(CN2C(=O)c3ccccc3S2(=O)=O)cc1	inconclusive: 16.5 µM [inhibitor, single point]	
Cc1ccc(NC(=O)C2C3CCC(O3)C2C(=O)O)cc1C (stereo unspecified)	inconclusive: 18.5 µM [inhibitor, single point]	
CCn1c(SCC(=O)N/N=C/C=C/c2ccco2)nnc1-c1ccc(OC)cc1	inconclusive: 2.08 µM [inhibitor, partial curve, poor fit]	
Cc1sc2ncn(CC(=O)N3CCCCC3)c(=O)c2c1C	inconclusive: 0.0041 µM [inhibitor, full curve, poor fit]	
O=c1c2ccccc2nc(SCc2cc(F)ccc2F)n1C1CCCC1	inconclusive: 18.5 µM [inhibitor, single point]	
O=C(CSc1nc2[nH]ncc2c(=O)n1-c1ccccc1)N1CCCc2ccccc21	inconclusive: 0.131 µM [inhibitor, full curve, poor fit]	
OC(COc1ccccc1F)CN1CCC(Cc2ccccc2)CC1 (stereo unspecified)	inconclusive: 18.5 µM [inhibitor, single point]	

Compound	Potency	activity change, negative = inhibition
COc1ccc(-c2nc3c(-c4ccccc4)cnn3cc2C)cc1F	inconclusive: 18.5 µM [inhibitor, single point]	
O=C(N/N=C/c1ccc([N+](=O)[O-])o1)c1cc([N+](=O)[O-])cc([N+](=O)[O-])c1O		inactive: -102%
COc1ccc(Cc2noc(CN3CCCN(Cc4ccc(F)cc4)CC3)n2)cc1OC		inactive: 33.3%
COc1ccccc1-c1cc(C(=O)N2CCN(c3ccccc3)CC2)no1		inactive: 15.4%
O=c1[nH]c(-c2ccc(Cl)cc2)nc(=S)[nH]1		inactive: 19%
Cc1cc(C)c2[nH]c(=O)c(CN(Cc3ccc4c(c3)OCO4)Cc3nnnn3C3CCCC3)cc2c1		inactive: 0%
COc1cccc(N2CCN(C(=O)c3oc4ccccc4c3NC(=O)CCc3cc(OC)no3)CC2)c1	inconclusive: 18.5 µM [inhibitor, single point]	
C=CCn1c(SCC(=O)N2CCc3ccccc3C2)nc2sc(C)cc2c1=O	inconclusive: 11.7 µM [inhibitor, single point]	
CCCc1ccc(S(=O)(=O)N2CCN(C(C)C(=O)NC3CCCC3)CC2)cc1 (stereo unspecified)	inconclusive: 16.5 µM [inhibitor, single point]	
COc1cc(S(=O)(=O)N2CCN(c3ccccn3)CC2)ccc1Br		inactive: 217%
Oc1ccc(C2C=C(c3ccc(F)cc3)Nc3ncnn32)cc1 (stereo unspecified)	inconclusive: 18.5 µM [inhibitor, single point]	
Clc1ncc(CN2CCN(Cc3ccccc3)CC2)s1		inactive: 19.4%
c1coc(CN(Cc2cccs2)Cc2nnnn2C2CCCCC2)c1		inactive: -17.5%
COCCCNC(=O)Nc1ccc2c(c1)N(C)C(=O)CS2	inconclusive: 11.7 µM [inhibitor, single point]	
COc1ccccc1/C=C/C(=O)NC(=S)N1CCOCC1		inactive: 1.93%
CCc1cc(=O)oc2c3c(cc(OCC(=O)NCc4ccncc4)c12)OC(C)(C)CC3	inconclusive: 0.657 µM [inhibitor, full curve]	
CCOC(=O)N1CCN(C(=O)C(=O)NNC(=O)COc2ccc(Cl)cc2)CC1		inactive: -14%
CCc1cc(C(=O)NNC(=S)NCc2ccccc2)cs1		inactive: 1.49%
COc1ccc(C(O)c2coc3ccc(O)c(CN(C)C)c23)cc1 (stereo unspecified)	inconclusive: 0.828 µM [inhibitor, single point]	
Nc1ccc(C(=O)OCC(=O)Nc2ccc([N+](=O)[O-])cc2C(F)(F)F)cc1		inactive: -16.8%
O=C(CN1C(=O)S/C(=C\c2ccccn2)C1=O)Nc1ccccc1	inconclusive: 10.4 µM [inhibitor, single point]	
CCc1ccccc1Nc1nc(N)nc(CSc2nnc3ccccn23)n1	inconclusive: 18.5 µM [inhibitor, single point]	
CCc1cc(C(c2ccc(OC)c(OC)c2)N2CCOCC2)c(NC(=O)c2ccccc2)s1 (stereo unspecified)	inconclusive: 18.5 µM [inhibitor, single point]	
